# Earlier results, collected in US20200323780A1, “BILAYER COMBINATION TABLET FOR ORAL ADMINISTRATION CONTAINING TRAMADOL AND CELECOXIB” (KIMS HEALTHCARE CO., LTD., priority 2017, published 2020).
# At least one structure is not confirmed: it was looked up by name or label, or the drawing left a doubt.
# Conditions: after single-dose administration; cited from earlier work
compound,measurement,value
Cc1ccc(-c2cc(C(F)(F)F)nn2-c2ccc(S(N)(=O)=O)cc2)cc1 [Celecoxib],duration of medicinal effect,about 12 hours
